In publication PMC10163288:
The other results are listed elsewhere or left out.

B1: il10ra_site1_normal_mot_HHH_b2_00984_000000042_0001_1_20_H_._HHH_b2_01507_0001_0000100004_0000001_0 (protein)
chain: SSSSDEEVRREVEELLEEAEEIDDPRERNRLLLEATQIALRNNDPELLQLVWEIIKRLARSSSSS
B2: il10ra_site1_sap_21_mot_HHH_b1_03314_af2_000000278_0001_42_55_H_._HHH_b2_04349_0001_0000200013_0000002_0_0001 (protein)
chain: SSSSSSSDERMLRAAEALLKQGDEENARLSLRFALALARATNDEELAEEIRELLEELGSSSSSSS
B3: il10ra_site1_normal_mot_HHH_b1_06914_000000280_0001_1_18_H_._HHH_b1_02678_0001_0000300023_0000002_0 (protein)
chain: SSSSDRTQEVYELLRRAAEARANGNPEEAEELLEEARRLAEEANSELFRIQIEFLERAVKQSSSS
B4: il10ra_site1_normal_mot_8756ee2cf497b5429c717dfc0c0bcfd6_0001_000000186_0001_1_13_H_._HHH_b1_07051_af2_0001_0000100011_0000001_0_af2pred_0001 (protein)
chain: SSSTKVEEVAEILREAAELLRKGDKEEAKKLVEEAEELARENNNLTLEAIIRYLEEIIERLSSSS
B5: il10ra_site1_sap_15_mot_HHH_b2_00230_000000227_0001_1_19_H_._HHH_b2_04273_af2_0001_0000200001_0000001_0_0001 (protein)
chain: SSSSSSEAERLVEELVEELNLSEELKEALEVLAKILEIAGFSEEEAQRALEYFVEHQERISSSSS
B6: il10ra_site1_sap_27_mot_HHH_b2_02736_000000092_0001_22_38_H_._HHH_b2_04981_af2_0001_0000200015_0000001_0_0001 (protein)
chain: SSSSSDLAEEARKLIEELIELSEKGDEEELRRLLEEAEEEAERRNDDVIRAVIETLLELLSSSSS
B7: il10ra_site1_normal_mot_39ab2cb694c8b9c1dc7e65c0d672c93e_0001_000000036_0001_53_65_H_._HHH_b2_04624_af2_0001_0000200020_0000002_0 (protein)
chain: SSSSSDIEEELEKLIEKAEELLENGNPREAARVAAEASQFAMELGNAELLQEIWELAKRISSSSS
B8: il10ra_site1_sap_22_mot_HHH_b2_07145_000000158_0001_24_40_H_._HHH_b1_07964_0001_0000100004_0000002_0_0001_af2pred_0001 (protein)
chain: SSSSSSSTEAVEEVARLLEEALRNPERAEELLEEAKRLAEEANNEVLRLQIEYVERLLSSSSSSS
B9: il10ra_site1_sap_21_mot_HHH_b1_08477_000000091_0001_40_57_H_._HHH_b1_05644_af2_0001_0000600034_0000001_0_0001 (protein)
chain: SSSSSSSDVEEEVRELLEEAEEDPRHANELLQEAVRLAFRAQDPELLREVWRVVERLASSSSSSS
B10: il10ra_site1_sap_17_mot_HHH_b2_07488_000000216_0001_1_17_H_._HHH_b1_06410_0001_0000100008_0000001_0_0001_1 (protein)
chain: SSSSSSDARHEIYRLLKEAVEIDDPEEAEEVLEEAERLAREENNRVLLHVIEFLLRQIRSSSSSS
B11: il10ra_site1_sap_15_mot_HHH_b1_06804_000000054_0001_40_54_H_._HHH_b1_05559_0001_0000100001_0000001_0_0001_af2pred_0001 (protein)
chain: SSSSSERREEVIRLLREALQLLYEGDEEEARRLAEEAEELAEEANSPLLKLLVERLKEEINSSSS
B12: il10ra_site1_sap_12_mot_HHH_b2_05686_000000041_0001_1_18_H_._HHH_b1_06318_0001_0000300019_0000002_0_0001_af2pred_0001 (protein)
chain: SSSSDLEEEVEELLEEAKRIEDPEEVRKLLKEAARIAARARNPELSAAILEVFAELARAESSSSS
B13: il10ra_site1_sap_23_mot_HHH_b2_00273_000000062_0001_23_39_H_._HHH_b2_07535_0001_0000200013_0000001_0_0001 (protein)
chain: SSSSDTLEWSTKFTLEFIRQAYENGDPESAEKAIRELKEILEQAGNEELEEELEELERELSSSSS
B14: il10ra_site1_sap_10_mot_HHH_b2_04646_000000019_0001_1_20_H_._HHH_b1_08608_af2_0001_0000200016_0000001_0_0001_af2pred_0001 (protein)
chain: SSSSDEEREEVEELLEEAKHIEDPRERAHVLFRALRLALEIRDPEASKAVDKVALELFEKSSSSS
B15: il10ra_site1_normal_mot_HHH_b2_00033_000000036_0001_41_54_H_._HHH_b1_00990_0001_0000100001_0000001_0 (protein)
chain: SSSDETEEASELAAEAIRLAIRLGDEEIFQELWELFKLVIREGDPEVTERLEELLEELRERSSSS
B16: il10ra_site1_normal_mot_HHH_b2_03438_af2_000000049_0001_18_34_H_._HHH_b2_05696_0001_0000600042_0000002_0_af2pred_0001 (protein)
chain: SSSSSDEEIEREVERLIEELEEVSPEEAFELLREAAELAHELENPELSQLVLEASRRSVTSSSSS
B17: il10ra_site1_sap_8_mot_HHH_b2_01447_af2_000000258_0001_1_20_H_._HHH_b1_01734_0001_0000300050_0000001_0_0001 (protein)
chain: SSSSEEEFKRIKELIERVAEAIRRGDEEEAEKLLEEAERLAKERGDWSLRFAIELLERALSSSSS
B18: il10ra_site1_normal_mot_bc09c72237e61002eddc20b9c710af39_0001_1_000000136_0001_54_65_H_._791c408cb5e71e67ed545e9073e8da87_0001_0001_0000200017_0000001_0 (protein)
chain: SKEELEEIAELVEEGDPEAQRLAKEFLKEHLGVPPEHVEEAVEYLARHAGRPPEEVLSLMLRLYG
B19: il10ra_site1_normal_mot_HHH_b2_07579_000000275_0001_1_19_H_._HHH_b2_08251_0001_0000200042_0000002_0 (protein)
chain: SSSSTEAAQIVRELLREAIELLRNGNPEEARRVLEEAEEVAEEGNNPVLEFSVRHLLRDLNSSSS
B20: il10ra_site1_normal_mot_8756ee2cf497b5429c717dfc0c0bcfd6_0001_000000186_0001_1_13_H_._HHH_b1_04775_af2_0001_0000600024_0000001_0 (protein)
chain: SSSSDETEEVAKILEEAAELDLEGNPEEARELVEEALRIAEELRNDVLRAQAEYLLRIIENSSSS
B21: il10ra_site1_normal_mot_8756ee2cf497b5429c717dfc0c0bcfd6_0001_000000186_0001_1_13_H_._HHH_b1_05999_af2_0001_0000500026_0000001_0_af2pred_0001 (protein)
chain: SSSSSEEAREALELLRKAVELASDGNPEEAREVVREAKELAEEAGNLTLRVAIEFLEKRLESSSS
B22: il10ra_site1_sap_31_mot_HHH_b1_00102_af2_000000216_0001_43_57_H_._HHH_b2_04027_af2_0001_0000300014_0000002_0_0001 (protein)
chain: SSSSSEEEEELEELLRRIEEAVRRGDPELFAELVQELLRLAFQLSDEEVLQELYELFRKAASSSS
B23: il10ra_site1_sap_24_mot_0eddeacbb14b769e73e254714f31e2f9_0001_af2_000000203_0001_37_51_H_._HHH_b2_07388_0001_0000500025_0000002_0_0001 (protein)
chain: SSSSDEELEETLRELQEAAEEGDLELFWELSRRALELARELGDEEALERILELVRLIAENASSSS
B24: il10ra_site1_normal_mot_HHH_b1_05185_000000011_0001_22_39_H_._HHH_b2_07609_af2_0001_0000400030_0000001_0_af2pred_0001 (protein)
chain: SSSSSEEAKKAAEFLVKAAKQIDDPEKVKLTLRFAKHLAELANDEELLEEIEELEEELRKSSSSS
B25: il10ra_site1_sap_13_mot_HHH_b2_00093_af2_000000025_0001_40_54_H_._HHH_b1_02486_0001_0000800030_0000001_0_0001 (protein)
chain: SSSSTEVAREVYELIEKAFELKEEGDPEEARRILEEALEIAEENNNRLLVIVLRHLLRAENSSSS
B26: il10ra_site1_sap_21_mot_HHH_b1_07962_000000254_0001_41_55_H_._HHH_b2_04450_0001_0000400041_0000001_0_0001_af2pred_0001 (protein)
chain: SSSSSQEEIRLEAIIRYAELSWELGNRHVARKAVEIAIELAEELNNPEILEELRQLLEELESSSS
B27: il10ra_site1_normal_mot_HHH_b2_03220_af2_000000223_0001_23_40_H_._HHH_b1_01843_af2_0001_0000200015_0000002_0 (protein)
chain: SSSSSSSEAEEVWRLLREALHIDDEEEVQELLEEAKRLAEELNSEVLRIVIEFLERDLSSSSSSS
B28: il10ra_site1_normal_mot_b26a303360aa2756ef5b79665ce52f45_0001_000000179_0001_1_11_H_._HHH_b1_00459_0001_0000400033_0000001_0 (protein)
chain: SSSSDLHELTEEVFRLLKEAAESGDEELLEEVLEELLRLAQEVNNVVLVFSLEHKLRALRSSSSS
B29: il10ra_site1_sap_37_mot_49468d6c54d8157f7969f91124172a68_0001_af2_000000173_0001_37_51_H_._f047eb42cf1b485822c4fa8256f1421d_0001_0001_0000100003_0000001_1_0001 (protein)
chain: SSSSSSDDALELSVEAFRLALRGNPEEAEKVLEKALEIAEENNNERLKEMLEQLLKTQSSSSSSS
B30: il10ra_site1_sap_18_mot_HHH_b2_03220_af2_000000223_0001_23_40_H_._HHH_b1_03263_af2_0001_0000400016_0000002_0_0001 (protein)
chain: SSSSSLAEEAYRLLREAMEAMDEGDEELVRELIEEAEKLAEEAGNRVILQVIRWSLERFNSSSSS
B31: il10ra_site1_normal_mot_HHH_b1_01011_000000096_0001_1_19_H_._HHH_b1_08664_0001_0000100005_0000001_0 (protein)
chain: SSSSSSDYLELSLKFAKFLLEEGDEEAARRILKAAADVAEREGDPLLEEIEELLEEVRSSSSSSS
B32: il10ra_site1_normal_mot_HHH_b2_08144_af2_000000046_0001_38_52_H_._HHH_b1_08340_af2_0001_0000200013_0000001_0 (protein)
chain: SSSSDELIQRIFKLLRELAELVHEGNEEEVERVYEEIKELLEELGNPLLEIQLEFLFRSLRSSSS
B33: il10ra_site1_normal_mot_HHH_b1_06789_af2_000000041_0001_1_20_H_._HHH_b1_02788_0001_0000200021_0000002_0 (protein)
chain: SSSSDLEEEIEEAIEEARENGDEHIVEILENLLRQIRRDGSPNARWLVRQVIKALKNLLENSSSS
B34: il10ra_site1_sap_20_mot_HHH_b2_03220_af2_000000223_0001_23_40_H_._HHH_b1_00867_0001_0000100009_0000001_0_0001 (protein)
chain: SSSSDEETQEILRLIEEAMKLATEGDPEEAREVLREAEEIAEEINNRLAKIQIEFVLRRLGSSSS
B35: il10ra_site1_sap_15_mot_HHH_b2_00475_000000002_0001_44_57_H_._HHH_b2_02112_0001_0000100002_0000001_0_0001 (protein)
chain: SSSSSEENRRLYELLRRAVELDHEGNPEEAEEVLEEARELAEEANNRVLLAVIRAMQELLNSSSS
B36: il10ra_site1_normal_mot_HHH_b1_02397_af2_000000085_0001_39_57_H_._HHH_b2_04508_0001_0000400009_0000002_0 (protein)
chain: SSSSDREEELKELLKELEELVEEGDRERAAKVAIRVLRLAFRANDPEAVRAVWRILREYLSSSSS
B37: il10ra_site1_normal_mot_HHH_b1_00666_000000226_0001_43_56_H_._7a3d71bd8e0044baaa50656571eb2fb7_0001_0001_0000100007_0000001_0 (protein)
chain: SEEEEVLEELIRRLKESGDPELRRLAEEIEELRKEDKQRALQLASAVALALGDEELVQLLWKVAL

Biological target: il10ra, Q13651
Test: yeast display titration

Apparent Kd, inactive:
B1 no binding seen
B2 no binding seen
B3 no binding seen
B4 no binding seen
B5 no binding seen
B6 no binding seen
B7 no binding seen
B8 no binding seen
B9 no binding seen
B10 no binding seen
B11 no binding seen
B12 no binding seen
B13 no binding seen
B14 no binding seen
B15 no binding seen
B16 no binding seen
B17 no binding seen
B18 no binding seen
B19 no binding seen
B20 no binding seen
B21 no binding seen
B22 no binding seen
B23 no binding seen
B24 no binding seen
B25 no binding seen
B26 no binding seen
B27 no binding seen
B28 no binding seen
B29 no binding seen
B30 no binding seen
B31 no binding seen
B32 no binding seen
B33 no binding seen
B34 no binding seen
B35 no binding seen
B36 no binding seen
B37 no binding seen

Reprinted at random: three records from the list
Apparent Kd, inactive:
B24 no binding seen
B11 no binding seen
B18 no binding seen
